# According to PubChem BioAssay AID720708 (National Center for Advancing Translational Sciences (NCATS), 2013):
# By UniProt entry, the sequences of proteins in these tests, tags left out.
# UniProt Q8WZA2, whole entry: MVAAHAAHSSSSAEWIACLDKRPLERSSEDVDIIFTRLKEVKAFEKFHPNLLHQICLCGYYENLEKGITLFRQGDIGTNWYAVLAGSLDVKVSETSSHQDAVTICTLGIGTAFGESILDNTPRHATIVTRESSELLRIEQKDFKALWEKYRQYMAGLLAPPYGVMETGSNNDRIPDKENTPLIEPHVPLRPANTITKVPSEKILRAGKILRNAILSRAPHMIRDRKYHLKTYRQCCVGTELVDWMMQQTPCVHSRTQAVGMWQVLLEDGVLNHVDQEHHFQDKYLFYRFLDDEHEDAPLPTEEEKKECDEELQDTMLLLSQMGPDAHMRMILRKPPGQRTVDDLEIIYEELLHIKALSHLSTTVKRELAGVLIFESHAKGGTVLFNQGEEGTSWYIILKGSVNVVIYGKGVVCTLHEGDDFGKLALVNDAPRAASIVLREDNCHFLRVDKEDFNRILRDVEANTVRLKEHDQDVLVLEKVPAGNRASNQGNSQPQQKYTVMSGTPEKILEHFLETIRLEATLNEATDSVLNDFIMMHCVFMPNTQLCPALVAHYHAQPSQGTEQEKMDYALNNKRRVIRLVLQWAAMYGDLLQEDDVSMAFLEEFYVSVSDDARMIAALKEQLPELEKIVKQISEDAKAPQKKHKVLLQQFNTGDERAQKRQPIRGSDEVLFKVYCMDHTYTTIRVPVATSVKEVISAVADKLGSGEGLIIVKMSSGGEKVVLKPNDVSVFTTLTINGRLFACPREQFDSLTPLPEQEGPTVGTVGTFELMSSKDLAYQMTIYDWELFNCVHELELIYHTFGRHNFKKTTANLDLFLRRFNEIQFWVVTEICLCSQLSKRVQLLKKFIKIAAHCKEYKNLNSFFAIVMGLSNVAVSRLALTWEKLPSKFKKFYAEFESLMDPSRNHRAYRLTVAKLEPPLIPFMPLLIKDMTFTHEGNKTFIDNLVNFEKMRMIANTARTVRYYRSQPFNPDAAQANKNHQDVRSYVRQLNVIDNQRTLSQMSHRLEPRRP
# Hit rate of the full screen: of about 360,000 compounds, about 660 (0.18%) were called active. The source calls these results inconclusive, neither active nor inactive. Calls follow the shape of the dose curve; as a rule, active = well fitted inhibition curve with a large enough effect; inconclusive = small, poorly fitted or top-dose-only effect; inactive = no such curve, though single readings can be large or run the other way.
# Molecular target: Rap guanine nucleotide exchange factor 4 (Homo sapiens) (UniProt Q8WZA2)
# Assay: qHTS for Antagonist of cAMP-regulated guanine nucleotide exchange factor 2 (EPAC2): primary screen; also: nearly all actives have a fitted effect of over 45% in size
# Settings: EPAC2 GEF exchange of Rap1B-BODIPY-GDP, fluorescence
# Description: In multi-cellular eukaryotic organisms, the effects of cAMP are transduced by two ubiquitously-expressed intracellular cAMP receptors, the classic protein kinase A/cAMP-dependent protein kinase (PKA/cAPK) and the more recently discovered exchange protein directly activated by cAMP/cAMP-regulated guanine nucleotide exchange factor (EPAC/cAMP-GEF). Both PKA and EPAC are ubiquitously expressed in all tissues, and an increase in intracellular cAMP levels will lead to the activation of both PKA and EPAC. Therefore, careful dissections of the individual role and relative contribution of EPAC and PKA within the overall cAMP signaling in various model systems are critical for further elucidating the mechanism of cAMP signaling. To date no EPAC-specific antagonists and agonist, as well as isoform-specific agonists have been reported, and developing EPAC-specific pharmacological probes to determine the physiological functions that EPAC play in the overall cAMP-mediated signaling remains a major challenge within the research field. Furthermore, identified regulators of EPAC may lead to new mechanism-based therapeutic strategies specifically targeting the EPAC / cAMP-signaling components as EPAC has been implicated to play important roles in major human pathological conditions such as diabetes, heart disease, and cancer.
# This qHTS will be used to screen the Molecular Libraries Small Molecule Repository (MLSMR) as a concentration-titration series using the NCGC unique quantitative screening (qHTS) platform to find inhibitors for EPAC2. In addition, this assay will also be used as a counterscreen for the EPAC1 qHTS. This fluorescent based assay is developed and validated for EPAC2 that measures exchange using EPAC effector Rap1 complex with BODIPY-GDP, a GDP analog with a tethered fluorophores. Inhibitors are identified by monitoring the change in fluorescence signal as the exchanged free BODIPY-GDP has a reduced fluorescence compared to Rap1-bound BODIPY-GDP. Decrease in signal (inhibition) is the desired outcome for the EPAC2 antagonist while no activity in this assay is desired for the EPAC1 antagonist counterscreen.
# NIH Chemical Genomics Center [NCGC]
# NIH Molecular Libraries Probe Centers Network [MLPCN]
# Assay Submitter (PI): Xiaodong Cheng, The University of Texas, Medical Branch
# Briefly, three uL of reagents (100 nM EPAC2, 250 nM RAP1B-BODIPY-GDP, 50 uM GDP) were dispensed into a 1536-well Greiner black solid-bottom medium binding assay plate. Controls and test compounds (23 nL) were transferred to the plate via a Kalypsys pin tool equipped with a 1536-pin array. The plates were centrifuged at 1,000 rpm for 15 seconds followed by 5 minute incubation at room temperature. The assay plates were read at 5 minute intervals for 30 minutes in the ViewLux plate reader using 480nm excitation and 540nm emission filters. The results were normalized to the agonist positive control ATA and DMSO.
# Potency is read from the fitted curve at half-maximal effect.
row,SMILES,Potency
1,O=[N+]([O-])c1cc([N+](=O)[O-])c(-c2cnn(-c3ccccc3)c2)c([N+](=O)[O-])c1,inconclusive: 12.6 µM
2,CP(=S)(Nn1cnnc1)Oc1ccccc1 (centres undefined),inconclusive: 35.5 µM
3,CP(=O)(Nc1ccc(SC(F)(F)F)cc1)Oc1ccc(Cl)cc1 (centres undefined),inconclusive: 56.2 µM
4,COc1ccccc1OP(C)(=O)Nc1ccccc1Br (centres undefined),inconclusive: 89.1 µM
5,Cc1cc(C)cc(OP(C)(=O)Nc2cccc(C(F)(F)F)c2)c1 (centres undefined),inconclusive: 50.1 µM
6,CCCCCCCCCCCCCCCC1C[N+](C)(C)CCOP(C)(=O)O1 (centres undefined),inconclusive: 28.2 µM
7,CP(=O)(Nc1ccc(Cl)cc1Cl)Oc1ccccc1 (centres undefined),inconclusive: 44.7 µM
8,CC(C)c1ccc(OP(C)(=O)Nc2ccc(SC(F)(F)F)cc2)cc1 (centres undefined),inconclusive: 20 µM
9,CCCCCOc1ccc(NP(C)(=O)Oc2ccc(Cl)cc2Cl)cc1 (centres undefined),inconclusive: 50.1 µM
